The supplement of paper PMC10849652
The other results are listed elsewhere or left out.

Protein sequences, listed by entry. Tags and fused reporters are not part of them. Lines headed by an entry give the natural chain unless they say otherwise; changes in a name come on top.
UniProt Q8TB03: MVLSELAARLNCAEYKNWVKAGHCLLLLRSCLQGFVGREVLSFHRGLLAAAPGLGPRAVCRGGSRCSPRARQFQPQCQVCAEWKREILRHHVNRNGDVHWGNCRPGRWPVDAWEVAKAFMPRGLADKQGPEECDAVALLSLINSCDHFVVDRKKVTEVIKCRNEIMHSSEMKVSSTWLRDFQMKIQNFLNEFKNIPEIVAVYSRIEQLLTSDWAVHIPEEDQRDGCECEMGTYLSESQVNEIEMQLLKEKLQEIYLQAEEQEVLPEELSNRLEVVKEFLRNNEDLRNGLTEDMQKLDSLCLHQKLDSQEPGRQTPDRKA
UniProt Q7L576: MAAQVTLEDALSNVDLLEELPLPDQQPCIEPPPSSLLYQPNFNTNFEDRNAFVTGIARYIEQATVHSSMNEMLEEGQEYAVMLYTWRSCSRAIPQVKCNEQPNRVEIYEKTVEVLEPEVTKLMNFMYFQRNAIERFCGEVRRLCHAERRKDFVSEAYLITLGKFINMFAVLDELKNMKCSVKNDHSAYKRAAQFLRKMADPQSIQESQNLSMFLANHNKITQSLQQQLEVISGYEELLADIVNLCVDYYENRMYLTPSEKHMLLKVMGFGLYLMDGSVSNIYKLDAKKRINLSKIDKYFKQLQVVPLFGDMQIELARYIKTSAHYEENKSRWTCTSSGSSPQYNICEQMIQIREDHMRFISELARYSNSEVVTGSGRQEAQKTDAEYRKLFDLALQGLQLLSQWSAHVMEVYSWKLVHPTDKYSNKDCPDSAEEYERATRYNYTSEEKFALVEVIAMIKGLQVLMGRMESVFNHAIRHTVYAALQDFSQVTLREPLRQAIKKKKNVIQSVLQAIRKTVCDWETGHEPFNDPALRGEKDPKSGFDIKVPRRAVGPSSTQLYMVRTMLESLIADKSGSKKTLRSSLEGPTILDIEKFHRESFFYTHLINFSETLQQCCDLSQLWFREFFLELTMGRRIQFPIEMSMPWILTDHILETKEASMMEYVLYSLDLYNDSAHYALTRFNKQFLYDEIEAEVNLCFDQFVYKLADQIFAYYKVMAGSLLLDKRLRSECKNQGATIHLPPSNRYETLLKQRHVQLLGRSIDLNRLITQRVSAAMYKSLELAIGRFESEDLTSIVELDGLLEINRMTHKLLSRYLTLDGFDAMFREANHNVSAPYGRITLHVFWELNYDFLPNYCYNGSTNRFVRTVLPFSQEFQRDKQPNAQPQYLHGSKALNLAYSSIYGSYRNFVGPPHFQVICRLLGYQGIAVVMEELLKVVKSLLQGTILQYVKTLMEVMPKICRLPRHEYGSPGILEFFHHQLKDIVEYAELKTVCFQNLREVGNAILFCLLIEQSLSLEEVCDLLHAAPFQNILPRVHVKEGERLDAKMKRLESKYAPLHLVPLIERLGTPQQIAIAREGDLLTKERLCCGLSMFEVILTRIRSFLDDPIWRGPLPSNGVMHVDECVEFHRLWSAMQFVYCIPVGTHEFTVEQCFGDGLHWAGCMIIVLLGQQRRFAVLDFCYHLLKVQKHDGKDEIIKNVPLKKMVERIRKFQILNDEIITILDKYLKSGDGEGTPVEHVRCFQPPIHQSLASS
UniProt O75718: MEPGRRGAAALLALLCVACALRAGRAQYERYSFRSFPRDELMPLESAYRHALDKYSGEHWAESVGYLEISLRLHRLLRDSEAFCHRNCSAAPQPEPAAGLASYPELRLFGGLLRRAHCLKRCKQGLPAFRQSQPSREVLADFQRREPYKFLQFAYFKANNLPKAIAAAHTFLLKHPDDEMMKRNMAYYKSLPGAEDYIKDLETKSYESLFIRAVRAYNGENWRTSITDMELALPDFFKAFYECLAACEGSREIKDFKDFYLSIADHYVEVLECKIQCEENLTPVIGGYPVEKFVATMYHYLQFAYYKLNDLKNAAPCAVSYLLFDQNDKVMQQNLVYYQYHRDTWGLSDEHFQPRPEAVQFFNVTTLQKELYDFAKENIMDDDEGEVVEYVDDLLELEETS
UniProt Q5JQC4: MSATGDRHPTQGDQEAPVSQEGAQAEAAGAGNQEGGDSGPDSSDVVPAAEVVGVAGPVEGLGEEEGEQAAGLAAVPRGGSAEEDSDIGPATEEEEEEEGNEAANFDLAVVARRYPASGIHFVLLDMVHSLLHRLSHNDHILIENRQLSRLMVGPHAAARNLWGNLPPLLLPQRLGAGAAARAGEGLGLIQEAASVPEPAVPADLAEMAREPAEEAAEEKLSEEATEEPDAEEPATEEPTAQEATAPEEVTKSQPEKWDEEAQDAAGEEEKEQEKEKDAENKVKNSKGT
UniProt O43169: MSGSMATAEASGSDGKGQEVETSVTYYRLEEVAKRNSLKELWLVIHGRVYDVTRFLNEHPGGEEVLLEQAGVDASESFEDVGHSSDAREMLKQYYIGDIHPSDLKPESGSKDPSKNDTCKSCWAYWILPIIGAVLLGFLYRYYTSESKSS
UniProt O75534: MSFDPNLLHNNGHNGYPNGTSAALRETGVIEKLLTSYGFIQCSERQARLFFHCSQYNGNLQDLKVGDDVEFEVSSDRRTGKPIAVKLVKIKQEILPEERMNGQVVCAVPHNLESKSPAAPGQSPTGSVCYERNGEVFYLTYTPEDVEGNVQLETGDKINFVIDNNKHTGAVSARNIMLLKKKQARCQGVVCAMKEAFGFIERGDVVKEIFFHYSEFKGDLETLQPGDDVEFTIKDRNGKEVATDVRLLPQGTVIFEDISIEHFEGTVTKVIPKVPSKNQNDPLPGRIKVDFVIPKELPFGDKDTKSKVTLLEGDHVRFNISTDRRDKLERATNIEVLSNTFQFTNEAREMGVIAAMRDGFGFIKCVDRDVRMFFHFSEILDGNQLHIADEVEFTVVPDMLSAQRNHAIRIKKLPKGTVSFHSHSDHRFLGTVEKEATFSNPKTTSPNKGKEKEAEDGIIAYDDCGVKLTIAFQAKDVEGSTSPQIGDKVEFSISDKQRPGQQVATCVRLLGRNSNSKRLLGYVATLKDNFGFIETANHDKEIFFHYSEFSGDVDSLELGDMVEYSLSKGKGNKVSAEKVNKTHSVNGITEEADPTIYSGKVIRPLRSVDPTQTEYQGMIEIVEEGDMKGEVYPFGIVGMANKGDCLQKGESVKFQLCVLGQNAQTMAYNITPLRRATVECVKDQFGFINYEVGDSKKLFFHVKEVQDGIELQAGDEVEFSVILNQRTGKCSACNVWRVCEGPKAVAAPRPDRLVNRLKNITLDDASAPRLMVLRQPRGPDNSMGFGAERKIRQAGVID
UniProt Q9UHQ9: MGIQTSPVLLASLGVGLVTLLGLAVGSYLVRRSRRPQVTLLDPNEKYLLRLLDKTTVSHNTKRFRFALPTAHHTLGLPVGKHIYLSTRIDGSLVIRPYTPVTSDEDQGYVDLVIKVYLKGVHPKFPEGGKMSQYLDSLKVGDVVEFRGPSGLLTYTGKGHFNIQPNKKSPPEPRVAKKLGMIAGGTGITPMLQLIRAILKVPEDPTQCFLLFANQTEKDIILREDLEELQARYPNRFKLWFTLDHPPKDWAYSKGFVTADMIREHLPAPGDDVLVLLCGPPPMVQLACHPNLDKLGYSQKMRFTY
UniProt Q14999: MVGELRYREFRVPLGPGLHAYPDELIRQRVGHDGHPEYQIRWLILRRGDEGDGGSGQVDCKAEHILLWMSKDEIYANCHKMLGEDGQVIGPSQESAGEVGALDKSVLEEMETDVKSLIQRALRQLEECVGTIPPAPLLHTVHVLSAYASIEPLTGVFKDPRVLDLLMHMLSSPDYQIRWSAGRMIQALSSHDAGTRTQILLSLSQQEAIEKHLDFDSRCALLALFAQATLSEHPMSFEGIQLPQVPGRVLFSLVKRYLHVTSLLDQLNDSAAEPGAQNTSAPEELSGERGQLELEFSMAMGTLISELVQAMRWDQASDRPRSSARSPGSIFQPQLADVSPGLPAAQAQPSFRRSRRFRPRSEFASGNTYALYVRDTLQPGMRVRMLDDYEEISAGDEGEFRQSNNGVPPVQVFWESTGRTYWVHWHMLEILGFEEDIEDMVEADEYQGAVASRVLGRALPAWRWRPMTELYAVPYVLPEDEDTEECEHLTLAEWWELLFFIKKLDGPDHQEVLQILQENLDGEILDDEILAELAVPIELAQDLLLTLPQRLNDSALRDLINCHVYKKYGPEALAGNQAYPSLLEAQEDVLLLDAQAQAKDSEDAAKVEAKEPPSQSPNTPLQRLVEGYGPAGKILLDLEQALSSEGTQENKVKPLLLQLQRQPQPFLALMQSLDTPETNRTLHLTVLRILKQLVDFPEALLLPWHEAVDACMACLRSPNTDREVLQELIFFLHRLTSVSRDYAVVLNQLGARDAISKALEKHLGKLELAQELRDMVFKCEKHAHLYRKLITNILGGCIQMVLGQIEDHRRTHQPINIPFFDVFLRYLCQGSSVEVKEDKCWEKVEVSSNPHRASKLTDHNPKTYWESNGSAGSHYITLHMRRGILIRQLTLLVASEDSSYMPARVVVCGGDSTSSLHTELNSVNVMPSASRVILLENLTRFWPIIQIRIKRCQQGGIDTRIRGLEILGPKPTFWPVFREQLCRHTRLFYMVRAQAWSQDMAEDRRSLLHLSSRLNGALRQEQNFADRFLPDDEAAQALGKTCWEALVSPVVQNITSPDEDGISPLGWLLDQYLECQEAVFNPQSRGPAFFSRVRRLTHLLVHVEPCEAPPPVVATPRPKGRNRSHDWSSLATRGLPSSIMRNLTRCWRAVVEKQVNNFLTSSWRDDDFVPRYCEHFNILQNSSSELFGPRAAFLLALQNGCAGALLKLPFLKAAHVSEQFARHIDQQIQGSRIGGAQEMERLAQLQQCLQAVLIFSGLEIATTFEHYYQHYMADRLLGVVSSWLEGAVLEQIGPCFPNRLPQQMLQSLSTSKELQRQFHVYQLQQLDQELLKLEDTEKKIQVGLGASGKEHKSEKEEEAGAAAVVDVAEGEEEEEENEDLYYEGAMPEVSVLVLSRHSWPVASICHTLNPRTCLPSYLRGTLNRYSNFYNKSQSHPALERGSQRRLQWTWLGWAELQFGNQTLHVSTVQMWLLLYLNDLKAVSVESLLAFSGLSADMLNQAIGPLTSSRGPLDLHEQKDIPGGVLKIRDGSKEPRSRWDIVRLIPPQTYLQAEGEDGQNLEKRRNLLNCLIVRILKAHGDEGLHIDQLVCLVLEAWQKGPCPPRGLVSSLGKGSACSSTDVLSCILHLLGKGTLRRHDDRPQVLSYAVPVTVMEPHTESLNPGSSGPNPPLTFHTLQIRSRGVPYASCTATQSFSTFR
UniProt Q2TBE0: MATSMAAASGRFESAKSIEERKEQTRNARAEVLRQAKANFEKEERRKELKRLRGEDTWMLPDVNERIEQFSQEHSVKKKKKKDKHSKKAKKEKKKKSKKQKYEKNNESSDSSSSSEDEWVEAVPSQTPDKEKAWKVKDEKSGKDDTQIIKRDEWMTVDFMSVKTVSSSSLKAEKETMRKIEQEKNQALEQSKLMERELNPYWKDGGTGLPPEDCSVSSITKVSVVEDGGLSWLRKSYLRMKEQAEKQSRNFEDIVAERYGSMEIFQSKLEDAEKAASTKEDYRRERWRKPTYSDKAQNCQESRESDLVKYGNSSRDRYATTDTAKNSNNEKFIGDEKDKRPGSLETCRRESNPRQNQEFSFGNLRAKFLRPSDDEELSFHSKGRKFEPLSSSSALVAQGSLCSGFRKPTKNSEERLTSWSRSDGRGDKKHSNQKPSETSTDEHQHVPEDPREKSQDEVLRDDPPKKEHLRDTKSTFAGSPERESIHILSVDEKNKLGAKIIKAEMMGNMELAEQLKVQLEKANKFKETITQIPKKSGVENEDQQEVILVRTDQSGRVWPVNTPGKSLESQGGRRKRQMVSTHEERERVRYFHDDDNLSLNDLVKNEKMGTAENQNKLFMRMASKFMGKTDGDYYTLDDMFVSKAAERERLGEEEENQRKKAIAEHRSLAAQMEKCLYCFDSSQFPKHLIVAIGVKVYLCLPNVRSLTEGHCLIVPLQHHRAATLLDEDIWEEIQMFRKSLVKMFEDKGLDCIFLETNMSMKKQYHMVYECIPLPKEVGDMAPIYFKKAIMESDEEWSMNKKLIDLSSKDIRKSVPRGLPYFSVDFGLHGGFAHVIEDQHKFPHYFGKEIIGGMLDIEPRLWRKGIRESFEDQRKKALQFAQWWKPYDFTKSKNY
UniProt P53634: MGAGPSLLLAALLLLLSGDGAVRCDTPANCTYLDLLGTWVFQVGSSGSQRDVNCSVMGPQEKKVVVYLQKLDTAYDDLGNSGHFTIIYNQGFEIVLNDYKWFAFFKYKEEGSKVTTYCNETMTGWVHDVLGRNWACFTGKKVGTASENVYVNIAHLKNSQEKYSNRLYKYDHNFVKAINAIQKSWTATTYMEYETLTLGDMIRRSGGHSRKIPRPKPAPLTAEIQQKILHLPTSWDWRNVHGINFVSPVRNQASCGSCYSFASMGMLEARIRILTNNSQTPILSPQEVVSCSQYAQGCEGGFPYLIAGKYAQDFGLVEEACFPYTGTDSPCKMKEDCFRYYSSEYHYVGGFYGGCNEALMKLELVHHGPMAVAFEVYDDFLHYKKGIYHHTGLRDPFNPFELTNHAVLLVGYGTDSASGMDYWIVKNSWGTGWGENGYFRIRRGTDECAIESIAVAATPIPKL

Key:
Assay in all cases: log2 fold change, soluble protein after heating vs DMSO (PISA); higher = thermal stabilisation; K562 lysate, 10 uM; active = over 0.2 and 3.5 SD of the protein, either way, in both replicates (recomputed)
erlotinib = compound: C#Cc1cccc(Nc2ncnc3cc(OCCOC)c(OCCOC)cc23)c1 [erlotinib]
Method in brief: (§1)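 A 30 min treatment with 10 μM compound was applied to crude K562 extract at 1 mg/mL protein in PBS pH 7.4 with 1 mM MgCl2. Heating for 3 min spanned 48°C-58°C, after which aliquots were pooled, adjusted to 0.5% NP-40 at 4°C and spun at 21,000xg for 90 min. TMTpro 16plex LC-MS/MS of the supernatant, with channel sums equalised, gave values recorded as log-two fold change in thermal stability against solvent controls, from duplicates.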

[1] = compound: C/C(=N\NC(=O)C1=CC(=CC=C1)S(=O)(=O)N2CCOCC2)/C3=C(C=CC(=C3)Cl)O
Method in brief: as §1

[2] = compound: C1=CC(=CC=C1C2=NC3=C(N2)C=C(C=C3)C(=O)N)OC4=CC=C(C=C4)Cl
Method in brief: as §1

[3] = compound: C1=CC2=C(C=CC(=C2)/C=C\3/C(=O)NC(=NCC4=CC=CS4)S3)N=C1
Method in brief: as §1

[4] = compound: C1=CC2=NC=CN=C2C=C1/C=C/3\C(=O)NC(=O)S3
Method in brief: as §1

[5] = compound: C1=CC=C(C=C1)C2=NC(=C(N2)C3=CC=NC=C3)C4=CC(=C(C=C4)Cl)O
Method in brief: as §1

[6] = compound: C1=CC=C2C(=C1)C3=NNC4=CC=CC(=C43)C2=O
Method in brief: as §1

[7] = compound: C1CCN(C1)C(=O)NC2=CC=CC(=C2)NC3=NC=C(C(=N3)NCCC4=CN=CN4)Br
Method in brief: as §1

[8] = compound: C1CN(CCC1(CC2=CC=C(C=C2)Cl)N)C3=NC=NC4=C3C=CN4
Method in brief: as §1

IRAK-1-4 Inhibitor I = compound: C1COCCN1CCN2C3=CC=CC=C3N=C2NC(=O)C4=CC(=CC=C4)[N+](=O)[O-] [IRAK-1-4 Inhibitor I]
Method in brief: as §1

ibrutinib = compound: C=CC(=O)N1CCC[C@@H](n2nc(-c3ccc(Oc4ccccc4)cc3)c3c(N)ncnc32)C1 [ibrutinib]
Method in brief: as §1

[9] = compound: CC(=O)c1cnc2ccc(-c3cc(Cl)c(O)c(Cl)c3)nc2c1N[C@H]1CC[C@H](CN(C)C)CC1
Method in brief: as §1

ralimetinib = compound: CC(C)(C)Cn1c(N)nc2ccc(-c3[nH]c(C(C)(C)C)nc3-c3ccc(F)cc3)nc21 [ralimetinib]
Method in brief: as §1

[10] = compound: CC(C)(O)CC(=O)NCCn1ccc2ncnc(Nc3ccc(Oc4cccc(C(F)(F)F)c4)c(Cl)c3)c21
Method in brief: as §1

[11] = compound: CC(C)C1=C2N=C(C=C(N2N=C1)NCC3=CC=CC=C3)NCCCCCCN
Method in brief: as §1

[12] = compound: CC1=C(C(CC(=O)N1)C2=CC=C(C=C2)C(F)(F)F)C(=O)NC3=C(C=C4C(=C3)C=NN4)F
Method in brief: as §1

[13] = compound: CC1=C(C2=C(C=C1)C(=O)C3=CC=CC=C3N2CCCN)C
Method in brief: as §1

[14] = compound: CC1=C(C=C(C=C1)NC(=O)C2=CC(=CC=C2)C(C)(C)C#N)NC3=CC4=C(C=C3)N=CN(C4=O)C
Method in brief: as §1

[15] = compound: CC1=C(C=C(C=C1)NC(=O)C2=CC(=CC=C2)N(C)C)NC(=O)C3=CC=C(C=C3)O
Method in brief: as §1

[16] = compound: CC1=CC=C(C=C1)SC2=C3C=C(SC3=CN=C2)C(=O)N
Method in brief: as §1

Measured: log2 fold change

CXorf38 (UniProt Q8TB03)
inactive: erlotinib 0.068 | [1] 0.067 | [2] -0.003 | [3] 0.01 | [4] 0.042 | [5] 0.013 | [6] 0.012 | [7] -0.058 | [8] -0.031 | IRAK-1-4 Inhibitor I 0.026 | ibrutinib 0.054 | [9] 0.015 | ralimetinib -0.008 | [10] -0.007 | [11] 0.062 | [12] -0.095 | [13] 0.016 | [14] -0.002 | [15] -0.015 | [16] 0.025

CYFIP1 (UniProt Q7L576)
inactive: erlotinib -0.01 | [1] -0.011 | [2] 0.018 | [3] -0.009 | [4] 0.027 | [5] -0.047 | [6] -0.032 | [7] -0.005 | [8] 0.057 | IRAK-1-4 Inhibitor I 0 | ibrutinib 0.006 | [9] -0.003 | ralimetinib 0.014 | [10] -0.002 | [11] -0.024 | [12] -0.004 | [13] 0.011 | [14] -0.012 | [15] -0.019 | [16] -0.008

CRTAP (UniProt O75718)
inactive: erlotinib -0.032 | [1] 0.046 | [2] -0.012 | [3] -0.011 | [4] 0 | [5] 0.005 | [6] -0.004 | [7] 0.057 | [8] -0.014 | IRAK-1-4 Inhibitor I -0.043 | ibrutinib 0.025 | [9] 0.001 | ralimetinib 0.062 | [10] 0.032 | [11] -0.022 | [12] 0.052 | [13] 0.019 | [14] -0.119 | [15] -0.001 | [16] 0.026

CYB5R2 (UniProt Q6BCY4)
inactive: erlotinib -0.031 | [1] -0.062 | [2] 0.055 | [3] -0.045 | [4] -0.014 | [5] -0.021 | [6] 0.012 | [7] -0.057 | [8] 0.026 | IRAK-1-4 Inhibitor I 0.013 | ibrutinib 0.021 | [9] 0.016 | ralimetinib 0.018 | [10] -0.04 | [11] 0.01 | [12] -0.01 | [13] -0.027 | [14] 0.021 | [15] 0.008 | [16] -0.02

Two records drawn at random from those above, as already listed:
CYFIP1 (UniProt Q7L576)
inactive: erlotinib -0.01 | [1] -0.011 | [2] 0.018 | [3] -0.009 | [4] 0.027 | [5] -0.047 | [6] -0.032 | [7] -0.005 | [8] 0.057 | IRAK-1-4 Inhibitor I 0 | ibrutinib 0.006 | [9] -0.003 | ralimetinib 0.014 | [10] -0.002 | [11] -0.024 | [12] -0.004 | [13] 0.011 | [14] -0.012 | [15] -0.019 | [16] -0.008

CYB5R2 (UniProt Q6BCY4)
inactive: erlotinib -0.031 | [1] -0.062 | [2] 0.055 | [3] -0.045 | [4] -0.014 | [5] -0.021 | [6] 0.012 | [7] -0.057 | [8] 0.026 | IRAK-1-4 Inhibitor I 0.013 | ibrutinib 0.021 | [9] 0.016 | ralimetinib 0.018 | [10] -0.04 | [11] 0.01 | [12] -0.01 | [13] -0.027 | [14] 0.021 | [15] 0.008 | [16] -0.02

Additional entries follow:

CT47A1 (UniProt Q5JQC4)
inactive: erlotinib -0.003 | [1] -0.006 | [2] -0.003 | [3] -0.024 | [4] 0.006 | [5] 0.016 | [6] -0.132 | [7] -0.015 | [8] 0.055 | IRAK-1-4 Inhibitor I 0.017 | ibrutinib -0.007 | [9] -0.016 | ralimetinib 0.021 | [10] -0.032 | [11] 0.024 | [12] -0.061 | [13] -0.011 | [14] -0.004 | [15] 0.004 | [16] -0.024

CUL4A (UniProt Q13619)
inactive: erlotinib 0.013 | [1] 0.022 | [2] -0.009 | [3] 0.006 | [4] -0.009 | [5] 0.002 | [6] -0.02 | [7] -0.024 | [8] -0.012 | IRAK-1-4 Inhibitor I 0.039 | ibrutinib 0.017 | [9] -0.004 | ralimetinib -0.012 | [10] -0.022 | [11] 0.004 | [12] -0.004 | [13] -0.02 | [14] 0.012 | [15] 0.015 | [16] 0.002

CTBP1 (UniProt Q13363)
inactive: erlotinib 0.004 | [1] -0.002 | [2] 0.015 | [3] 0.02 | [4] 0.005 | [5] -0.025 | [6] -0.007 | [7] 0.001 | [8] -0.015 | IRAK-1-4 Inhibitor I -0.01 | ibrutinib 0.002 | [9] -0.021 | ralimetinib 0.024 | [10] -0.017 | [11] 0.041 | [12] -0.015 | [13] 0.007 | [14] 0.012 | [15] 0.008 | [16] 0.003

CRYZ (UniProt Q08257)
inactive: erlotinib -0.003 | [1] -0.026 | [2] 0.047 | [3] 0.002 | [4] 0.024 | [5] 0.003 | [6] 0.007 | [7] 0.003 | [8] 0.009 | IRAK-1-4 Inhibitor I 0.023 | ibrutinib -0.017 | [9] -0.008 | ralimetinib 0 | [10] -0.009 | [11] 0.002 | [12] -0.023 | [13] 0.019 | [14] 0.029 | [15] -0.016 | [16] -0.025

CYB5B (UniProt O43169)
inactive: erlotinib 0.009 | [1] 0.007 | [2] 0 | [3] -0.016 | [4] -0.037 | [5] -0.065 | [6] -0.016 | [7] -0.024 | [8] 0.085 | IRAK-1-4 Inhibitor I 0.016 | ibrutinib 0.111 | [9] -0.007 | ralimetinib 0.025 | [10] -0.049 | [11] -0.046 | [12] 0.004 | [13] -0.139 | [14] 0.049 | [15] -0.057 | [16] 0.048

CTPS1 (UniProt P17812)
inactive: erlotinib -0.002 | [1] 0.011 | [2] -0.027 | [3] -0.009 | [4] 0.005 | [5] -0.013 | [6] -0.011 | [7] -0.007 | [8] -0.007 | IRAK-1-4 Inhibitor I -0.001 | ibrutinib -0.045 | [9] 0.01 | ralimetinib -0.017 | [10] -0.015 | [11] -0.022 | [12] -0.012 | [13] 0.024 | [14] 0.004 | [15] 0.017 | [16] 0.02

CSDE1 isoform 4 (UniProt O75534)
inactive: erlotinib -0.025 | [1] 0.009 | [2] -0.035 | [3] 0.001 | [4] -0.023 | [5] -0.021 | [6] -0.002 | [7] 0.016 | [8] -0.001 | IRAK-1-4 Inhibitor I -0.017 | ibrutinib -0.007 | [9] -0.003 | ralimetinib 0.017 | [10] 0.03 | [11] 0.003 | [12] -0.013 | [13] 0.004 | [14] -0.022 | [15] 0.012 | [16] 0.009

CYB5R1 (UniProt Q9UHQ9)
inactive: erlotinib 0.022 | [1] 0.024 | [2] 0.1 | [3] -0.053 | [4] -0.136 | [5] -0.042 | [6] 0.049 | [7] -0.024 | [8] 0.026 | IRAK-1-4 Inhibitor I 0.043 | ibrutinib -0.051 | [9] 0.006 | ralimetinib 0.051 | [10] -0.097 | [11] 0.01 | [12] -0.071 | [13] 0.012 | [14] -0.038 | [15] 0.023 | [16] -0.012

CUL7 isoform 2 (UniProt Q14999)
inactive: erlotinib -0.068 | [1] -0.132 | [2] -0.084 | [3] 0.133 | [4] 0.026 | [5] 0.056 | [6] 0.088 | [7] 0.007 | [8] 0.065 | IRAK-1-4 Inhibitor I -0.034 | ibrutinib -0.096 | [9] 0.001 | ralimetinib -0.026 | [10] -0.103 | [11] 0.004 | [12] 0.063 | [13] -0.163 | [14] -0.017 | [15] -0.021 | [16] -0.179

CWF19L2 (UniProt Q2TBE0)
inactive: erlotinib -0.049 | [1] -0.009 | [2] -0.011 | [3] 0.015 | [4] 0.054 | [5] 0.024 | [6] -0.03 | [7] -0.011 | [8] -0.041 | IRAK-1-4 Inhibitor I -0.027 | ibrutinib 0.069 | [9] 0.21 | ralimetinib 0.032 | [10] -0.033 | [11] 0.005 | [12] 0.011 | [13] -0.019 | [14] 0.031 | [15] 0.022 | [16] 0.114

CTNNA2 (UniProt P26232)
inactive: erlotinib 0.045 | [1] 0.002 | [2] 0.06 | [3] -0.01 | [4] 0 | [5] -0.009 | [6] -0.004 | [7] -0.028 | [8] -0.003 | IRAK-1-4 Inhibitor I -0.031 | ibrutinib -0.001 | [9] 0.001 | ralimetinib 0.031 | [10] 0.028 | [11] -0.017 | [12] 0.008 | [13] -0.029 | [14] 0.04 | [15] -0.04 | [16] -0.025

CTSC (UniProt P53634)
inactive: erlotinib 0.006 | [1] -0.107 | [2] -0.008 | [3] 0.008 | [4] 0.019 | [5] 0.045 | [6] -0.044 | [7] -0.005 | [8] 0.017 | IRAK-1-4 Inhibitor I 0.004 | ibrutinib -0.073 | [9] 0.019 | ralimetinib -0.04 | [10] 0.051 | [11] -0.014 | [12] -0.01 | [13] -0.018 | [14] 0.008 | [15] -0.007 | [16] 0.001
